Measured values published in PubChem BioAssay AID687031 (Broad Institute, 2013).
The campaign covered roughly 1,400 compounds. About 50 (4%) were called active.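 How the source made its calls: active means fitted curve reaches 30% CPE protection at or below the top valid dose, with every test run called active; inconclusive means test runs disagree, some active and some not; inactive means every test run inactive, including effects in the wrong direction.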 The list shows a part of the results. Entries with a potency or affinity are not part of this list.

Assay: antiviral rescue of DENV2-infected BHK-21 cells – cell-based, ATP luminescence, cherry-pick, dose response (AID 687031);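 further: 0% = infected DMSO wells and 100% = uninfected cell wells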
Conditions: BHK-21 DENV2 CPE protection, 5 d; at 19.5 µM (top of the series) unless noted

CPE protection (higher = active), inactive:
C[C@@H]1CCCCO[C@H](CN(C)Cc2ccc(Cl)c(Cl)c2)[C@H](C)CN([C@@H](C)CO)C(=O)c2cc(NC(=O)c3ccccc3)ccc2O1 -6.71% [at 21 µM]
C[C@H](CO)N1C[C@H](C)[C@H](CN(C)Cc2ccccc2)Oc2c(NS(=O)(=O)c3ccc(F)cc3)cccc2C1=O -7.37%
COc1ccccc1CN(C)C(=O)c1cccc(S(=O)(=O)N2CCCc3ccccc32)c1 20.4%
Cc1ccc(C(C)C)c(OCCNC(=O)c2ccccc2O)c1 -16.5%
O=C(OCC(=O)N1CCOCC1)c1cc(=O)[nH]c2ccccc12 17.9%
Cc1ccc(NC(=O)c2cc(-c3cc(Cl)ccc3C)n[nH]2)cc1NS(C)(=O)=O -8.63% [at 10 µM]
Cn1cnc(S(=O)(=O)N2C[C@@H](O)COC[C@@H]3O[C@@H](CC(=O)NC4CCCC4)CC[C@H]32)c1 -14%
CC(C)[C@H](NC(=O)C1CC1)C(=O)N1CCC[C@H]1C(=O)NCCc1ccccc1Cl -0.264%
C[C@@H]1CN([C@@H](C)CO)C(=O)c2cc(NC(=O)Nc3ccc(C(F)(F)F)cc3)ccc2O[C@@H]1CN(C)C(=O)NC1CCCCC1 8.46% [at 21 µM]
CC(C)CCNC(=O)C1CC(c2ccccc2C(F)(F)F)=NO1 (centres undefined) 10.9%
Cc1ccc2c(c1)N(CCCC(=O)NCc1ccc3c(c1)OCO3)C(=O)CO2 11.7%
Cc1ccccc1NC(=O)c1ccc(S(=O)(=O)N(C)C)cc1 -3.98%
N#C[C@H]1[C@H](c2ccc(C#CC3CCCCC3)cc2)[C@@H](CO)N1C(=O)Cc1ccccn1 -17.6%
COCC#Cc1ccc2c(c1)O[C@@H](CN(C)C(=O)Nc1ccccc1F)[C@H](C)CN([C@@H](C)CO)S2(=O)=O -4.23%
CCOC(=O)CNC(=O)N(C)[C@H]1C[C@H]2c3[nH]c4ccccc4c3CCN2C(=O)[C@H]1[C@H](C)O 5.48%
Cc1ccc(CCN2CC(C(=O)NCCc3ccccc3)CC2=O)cc1 (centres undefined) -17.8%
ClCCCc1cn(C[C@H]2CC[C@@H]([C@@H]3CC[C@H](Cn4cc(CCCCl)nn4)O3)O2)nn1 -9.65%
COc1ccc(S(=O)(=O)N(C)C[C@@H]2OCCCC[C@H](C)Oc3ccc(NS(=O)(=O)c4c(C)noc4C)cc3C(=O)N([C@H](C)CO)C[C@H]2C)cc1 -2.45% [at 21 µM]
CCC(C)CN1C(=O)CSCC1(C)C(=O)Nc1ccc2c(c1)OCCO2 (centres undefined) 14.8%
CC(=O)Nc1cccc(C(=O)OC(C)C(=O)NC(=O)NC2CCCCC2)c1 (centres undefined) -3.28%
COc1ccc(CC(=O)NC2CCCCCC2)c(OC)c1 2.58%
C[C@H](NC(=O)c1ncn(Cc2ccccc2)c1C(=O)N[C@@H](C)c1ccccc1)c1ccccc1 -10.4%
CC(C)c1ccc(Nc2ncc3c(n2)CCN(C(=O)Nc2ccc(F)c(Cl)c2)C3)cc1 -25%
CCCn1c(=N)n(CC(O)COc2ccc(C)cc2)c2ccccc21 (centres undefined) -0.84%
CC1=NCCN1CCNC(=O)Nc1ccc(C(C)(C)C)cc1 4.23%
COc1cc(C(=S)N2CCCC2)ccc1OCc1ccc(C)cc1 4.2%
CCOc1ccc(N(CC(=O)Nc2cccc(C)c2)S(C)(=O)=O)cc1 29%
O=C(CN1CCN(S(=O)(=O)c2ccccc2F)CC1)NC1CCCC1 -5.6%
O=C(C[C@@H]1CC[C@@H]2[C@H](COC[C@H](O)CN2CC2CCOCC2)O1)N1CCOCC1 0.487%
Clc1cc(Br)ccc1OCCOCCN1CCCC1 15.6%
Cc1ccc(OCCOCCN2CCCC2)c(Br)c1 9.61%
C[C@H]1CN([C@@H](C)CO)C(=O)Cc2cc(NC(=O)CCCCCC(=O)Nc3ccccc3N)ccc2O[C@H]1CN(C)Cc1ccc(C(F)(F)F)cc1 39.6% [at 21 µM]
Cc1ccc(S(=O)(=O)NC(=O)C2(C)CCN2C(=O)c2ccc(C(F)(F)F)nc2C)cc1 (centres undefined) -3.52%
O=C(COc1ccc(F)cc1)Nc1ccc2c(c1)OCCO2 38.9%
Cc1cc(C)c(-c2c(O)c3ccccc3n(C)c2=O)c(C)c1 -25.4%
CCc1cc2c(=O)[nH]c(COC)nc2s1 -0.268%
COC(=O)CN(c1cc(Cl)ccc1OC)S(=O)(=O)c1ccc(OC)c(OC)c1 3.79%
COc1ccc(CC(N)c2csc(NC(=O)c3ccc(OC)cc3)n2)cc1 (centres undefined) -8.87%
COc1ccc(S(=O)(=O)Nc2ccc3c(c2)C(=O)N([C@@H](C)CO)C[C@H](C)[C@@H](CN(C)C(=O)Nc2ccc(C(F)(F)F)cc2)OCCCC[C@H](C)O3)cc1 21%
Cc1cc(OCC(O)CNC(C)c2ccccc2)ccc1C(C)C (centres undefined) -5.26%
C/C=C/c1ccc([C@H]2[C@@H](CO)N(C(=O)C3CC3)C23CN(C(=O)NC(C)C)C3)cc1 7.97%
O=C(CN1CCN(C(c2ccccc2)c2ccccc2)CC1)N1CCOCC1 27.7%
CCN(CC)S(=O)(=O)c1ccc(N2CCOCC2)c(NC(=O)c2ccccc2)c1 -1.8%
COc1ccc(NC(=O)Nc2cccc3c2O[C@H](CN(C)S(=O)(=O)c2ccccc2)[C@H](C)CN([C@@H](C)CO)C3=O)cc1 -0.618% [at 21 µM]
COC(=O)c1c(-c2ccc(OC)cc2)sc2cc3c(cc12)OCO3 -6.57%
CCOC(=O)c1sc(NC(=O)c2ccncc2)c(C#N)c1C 3.38%
O=C(CCNC(=O)OCC1c2ccccc2-c2ccccc21)NOCc1ccccc1 -0.354%
CN1CCN(S(=O)(=O)c2cccs2)CC1 18.8%
C[C@@H]1CCCCO[C@H](CN(C)S(=O)(=O)c2ccccc2)[C@@H](C)CN([C@H](C)CO)C(=O)c2cc(NC(=O)Nc3ccc4c(c3)OCO4)ccc2O1 -47.5%
O=C(c1cccc(Cl)c1)N1CCC2(CC1)NCCc1[nH]cnc12 4.28%
O=C(COc1ccc(-c2nnco2)cc1)NCc1ccccc1Cl -5.13%
Cc1nc2ccccc2c(=O)n1-c1ccc(NS(=O)(=O)c2ccccc2)cc1 2.65%
CCc1nnc(NC(=O)c2ccc(F)c(S(=O)(=O)N3CCCCC3)c2)s1 -19.2%
COc1ccc(CC(=O)Nc2ccc(C)c(S(=O)(=O)N3CCCCCC3)c2)cc1 -11.9%
O=C(NCc1cccs1)c1cccc(Nc2nc3ccc(Br)cc3[nH]2)c1 -1.49%
Cc1ccccc1-c1cnc(C(O)c2cccc(C)c2C)[nH]1 (centres undefined) 8.04%
Cc1ccc(OCCCCNC(C)c2ccccc2)c(C)c1 (centres undefined) 0.335%
O=C(CNc1cccc(S(=O)(=O)N2CCOCC2)c1)Nc1cccc(Br)c1 17.6% [at 10 µM]
C[C@@H]1CCCCO[C@@H](CN(C)C(=O)CCC(F)(F)F)[C@@H](C)CN([C@@H](C)CO)C(=O)c2cc(NC(=O)c3ccccc3)ccc2O1 -2.11%
C[C@@H]1CN([C@H](C)CO)C(=O)c2cc(NC(=O)c3ccncc3)ccc2O[C@@H](C)CCCCO[C@H]1CN(C)C -9.3%
C[C@@H]1CN([C@@H](C)CO)S(=O)(=O)c2ccc(-c3ccncc3)cc2O[C@H]1CN(C)C(=O)CC1CC1 -17.1%
CCOC(=O)C1=C(C)NC(=O)NC1c1ccc(N(C)C)cc1 (centres undefined) -0.681%
Cc1[nH]c(=O)c(C#N)c(C)c1CCC(=O)NCc1cccc(C(F)(F)F)c1 8.95%
Cc1noc(C)c1NC(=O)N(C)C[C@@H]1Oc2c(NS(=O)(=O)c3ccccc3)cccc2C(=O)N([C@@H](C)CO)C[C@@H]1C 1.59%
Cc1ccc2c(c1)c1c(n2CC(O)CNC2CCCC2)CCCC1 (centres undefined) 1.74%
CN1CCCC1CCNc1ccc2sc3ccccc3c(=O)c2c1 (centres undefined) 0.552%
CCC(C)(C)C1CCc2[nH]nc(C(=O)NCc3ccccn3)c2C1 (centres undefined) 13.8% [at 10 µM]
CCN(CC)CCCC(C)Nc1nccc2c(Cl)cccc12 (centres undefined) -3.08%
Cc1nnc(NC(=O)CCn2c(=O)oc3ccc(Cl)cc32)s1 -9.55%
COc1ccc(Cl)cc1-c1cc(C(=O)N[C@H](C)c2ccccc2)[nH]n1 -10.9%
O=C1NC(Cc2ccc(O)cc2)c2nc3ccccc3c(=O)n2-c2ccccc21 (centres undefined) -12.7%
COC(=O)[C@]12CCCCC=C1N(Cc1cccc3ccccc13)C(=O)[C@H](CC(=O)NCCC(C)C)C2 -12.2%
ClC(CCN1CCN(Cc2ccccc2)CC1)c1ccccc1 (centres undefined) 0.446%
CCCCN1C[C@H](Cc2ccccc2)[C@@H](CC(=O)Nc2ccccc2)C1=O -14.4%
C[C@@H]1CN([C@@H](C)CO)C(=O)c2cc(C#CCc3ccccc3)cnc2O[C@@H]1CN(C)C(=O)C1CCOCC1 11.9%
CC(=O)OCCCN(C)CC/C=C1/c2ccccc2CSc2ccccc21 -18.2%
COc1ccc(NC(=O)c2c(F)cccc2F)cc1S(=O)(=O)Nc1ccc(Br)cc1 10.9%
COCCCNc1oc(-c2ccccc2F)nc1C#N -5.4%
CC1CCN(C(=O)COC(=O)c2cc3ccccc3oc2=O)CC1 29.4%

Ordered by formula weight (ascending): some entries from above
CPE protection (higher = active), inactive:
CCCn1c(=N)n(CC(O)COc2ccc(C)cc2)c2ccccc21 (centres undefined) -0.84%
CCCCN1C[C@H](Cc2ccccc2)[C@@H](CC(=O)Nc2ccccc2)C1=O -14.4%
CC(=O)Nc1cccc(C(=O)OC(C)C(=O)NC(=O)NC2CCCCC2)c1 (centres undefined) -3.28%
C[C@H]1CN([C@@H](C)CO)C(=O)Cc2cc(NC(=O)CCCCCC(=O)Nc3ccccc3N)ccc2O[C@H]1CN(C)Cc1ccc(C(F)(F)F)cc1 39.6% [at 21 µM]
